Measured values published in the supplement of paper PMC4604168 (melanoma cell lines).
The other results are listed elsewhere or left out. Repeats are few or missing, and single values can be far off.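 Imaging used 1,536-well plates; nuclei positive for cleaved PARP by antibody were divided by total DNA-stained nuclei to yield the apoptosis fraction. Doses for screening kept most cells viable, and cell lines differ markedly in resting and induced cleaved-PARP levels.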

tested on: WM3619; assay: cleaved PARP positive nuclei fraction relative to DMSO control; melanoma cells; higher = more apoptosis; conditions: library dose: low library concentration; 72 h

Compared with `C[C@@H](Oc1cc(-c2cnn(C3CCNCC3)c2)cnc1N)c1c(Cl)ccc(F)c1Cl` [Crizotinib] + C[As](C)SC[C@H](NC(=O)CC[C@H](N)C(=O)O)C(=O)NCC(=O)O [Darinaparsin] (first compound 0.2 µM, partner dose 0.4 µM), `CS(=O)(=O)CCNCc1ccc(-c2ccc3ncnc(Nc4ccc(OCc5cccc(F)c5)c(Cl)c4)c3c2)o1` [lapatinib] + Cc1cc(SCc2sc(-c3ccc(C(F)(F)F)c(F)c3)nc2C)ccc1OCC(=O)O [GW0742] (first compound 0.8 µM, partner dose 2 µM) is higher in “cleaved PARP positive nuclei fraction” value: 82.2% for the first, 105% for the second.

`C[C@]12O[C@H](C[C@]1(O)CO)n1c3ccccc3c3c4c(c5c6ccccc6n2c5c31)CNC4=O` [Lestaurtinib] + C[C@]1(c2nc3c(C(N)=O)cccc3[nH]2)CCCN1 [Veliparib] (first compound 0.004 µM, partner dose 1.4 µM) was tested, and the “cleaved PARP positive nuclei fraction” value was 91%.
`C[C@]12O[C@H](C[C@]1(O)CO)n1c3ccccc3c3c4c(c5c6ccccc6n2c5c31)CNC4=O` [Lestaurtinib] + Nc1ccn([C@@H]2O[C@H](CO)[C@@H](O)C2(F)F)c(=O)n1 [gemcitabine] (first compound 0.004 µM, partner dose 0.0004 µM) was tested, and the “cleaved PARP positive nuclei fraction” value was 137%.

tested on: WM451Lu; assay: as above; conditions: library dose: low library concentration; 72 h

Going from `C[C@]12O[C@H](C[C@]1(O)CO)n1c3ccccc3c3c4c(c5c6ccccc6n2c5c31)CNC4=O` [Lestaurtinib] + O=C(CCCCCCC(=O)Nc1ccccc1)NO [vorinostat] (first compound 0.004 µM, partner dose 0.08 µM) to `Cn1cc(C2=C(c3cn(C4CCN(Cc5ccccn5)CC4)c4ccccc34)C(=O)NC2=O)c2ccccc21` [Enzastaurin] + CC(=O)c1c(C)c2cnc(Nc3ccc(N4CCNCC4)cn3)nc2n(C2CCCC2)c1=O [palbociclib] (first compound 0.8 µM, partner dose 0.04 µM), the “cleaved PARP positive nuclei fraction” value rises from 66.8% to 89.2%.

First: CCCCCCCCc1ccc(CCC(N)(CO)CO)cc1 [fingolimod] + N.N.[Cl][Pt][Cl] [cisplatin] (first compound 2 µM, partner dose 1.6 µM)
Second: O=C(/C=C/c1cccnc1)NCCCCC1CCN(C(=O)c2ccccc2)CC1 + C/C(O)=C(\C#N)C(=O)Nc1cc(Br)ccc1Br [LFM-A13] (first compound 0.01 µM, partner dose 2 µM)
The “cleaved PARP positive nuclei fraction” value of the first is lower: 65.5% for the first, 132% for the second.

Compared with `Cc1ccc(Nc2nccc(N(C)c3ccc4c(C)n(C)nc4c3)n2)cc1S(N)(=O)=O` [Pazopanib] + C/C(O)=C(\C#N)C(=O)Nc1cc(Br)ccc1Br [LFM-A13] (first compound 0.4 µM, partner dose 2 µM), `Cc1cn(-c2cc(NC(=O)c3ccc(C)c(Nc4nccc(-c5cccnc5)n4)c3)cc(C(F)(F)F)c2)cn1` [nilotinib] + C/C(O)=C(\C#N)C(=O)Nc1cc(Br)ccc1Br [LFM-A13] (first compound 0.2 µM, partner dose 2 µM) is higher in “cleaved PARP positive nuclei fraction” value: 83% for the first, 88.4% for the second.

First: C[C@]12O[C@H](C[C@]1(O)CO)n1c3ccccc3c3c4c(c5c6ccccc6n2c5c31)CNC4=O [Lestaurtinib] + O=C(Nc1cccc(Cl)c1)Nc1ncc(CCNc2ncnc3ccsc23)s1 [SNS314] (first compound 0.004 µM, partner dose 0.0008 µM)
Second: Cn1cc(C2=C(c3cn(C4CCN(Cc5ccccn5)CC4)c4ccccc34)C(=O)NC2=O)c2ccccc21 [Enzastaurin] + CNC(=O)c1cc(Oc2ccc(NC(=O)Nc3ccc(Cl)c(C(F)(F)F)c3)cc2)ccn1 [sorafenib] (first compound 0.8 µM, partner dose 0.4 µM)
The “cleaved PARP positive nuclei fraction” value of the first is higher: 85.1% for the first, 80% for the second.

Going from `C[C@]12O[C@H](C[C@]1(O)CO)n1c3ccccc3c3c4c(c5c6ccccc6n2c5c31)CNC4=O` [Lestaurtinib] + O=C(Oc1ccc([N+](=O)[O-])cc1)N1CCC(C(O)(c2ccc3c(c2)OCO3)c2ccc3c(c2)OCO3)CC1 [JZL184] (first compound 0.004 µM, partner dose 1 µM) to `Cn1c(=O)n(-c2ccc(C(C)(C)C#N)cc2)c2c3cc(-c4cnc5ccccc5c4)ccc3ncc21` + C/C(O)=C(\C#N)C(=O)Nc1cc(Br)ccc1Br [LFM-A13] (first compound 0.004 µM, partner dose 2 µM), the “cleaved PARP positive nuclei fraction” value rises from 104% to 300%.

First: C[As](C)SC[C@H](NC(=O)CC[C@H](N)C(=O)O)C(=O)NCC(=O)O [Darinaparsin] + Cn1nnc2c(C(N)=O)ncn2c1=O [temozolomide] (first compound 0.4 µM, partner dose 2 µM)
Second: CC1(C)CCC(c2ccc(Cl)cc2)=C(CN2CCN(c3ccc(C(=O)NS(=O)(=O)c4ccc(N[C@H](CCN5CCOCC5)CSc5ccccc5)c(S(=O)(=O)C(F)(F)F)c4)cc3)CC2)C1 + O=C(Oc1ccc([N+](=O)[O-])cc1)N1CCC(C(O)(c2ccc3c(c2)OCO3)c2ccc3c(c2)OCO3)CC1 [JZL184] (first compound 0.4 µM, partner dose 1 µM)
The “cleaved PARP positive nuclei fraction” value of the first is lower: 130% for the first, 186% for the second.

Going from `CC(C)(C)c1cnc(CSc2cnc(NC(=O)C3CCNCC3)s2)o1` + O=C(Oc1ccc([N+](=O)[O-])cc1)N1CCC(C(O)(c2ccc3c(c2)OCO3)c2ccc3c(c2)OCO3)CC1 [JZL184] (first compound 0.01 µM, partner dose 1 µM) to `Cc1cc(SCc2sc(-c3ccc(C(F)(F)F)c(F)c3)nc2C)ccc1OCC(=O)O` + Oc1cc(-c2nc(-c3ccccc3)[nH]c2-c2ccncc2)ccc1Cl [L779450] (first compound 2 µM, partner dose 0.2 µM), the “cleaved PARP positive nuclei fraction” value falls from 43.4% to 32.6%.

First: N.N.[Cl][Pt][Cl] [cisplatin] + COc1ccc2c(c1)CCC1C2CCC2(C)C(NCCCCCCN3C(=O)C=CC3=O)CCC12 [U73122] (first compound 1.6 µM, partner dose 0.4 µM)
Second: CS(=O)(=O)c1ccc(C(=O)Nc2ccc(Cl)c(-c3ccccn3)c2)c(Cl)c1 [vismodegib] + N.N.[Cl][Pt][Cl] [cisplatin] (first compound 1 µM, partner dose 1.6 µM)
The “cleaved PARP positive nuclei fraction” value of the first is lower: 37.9% for the first, 72% for the second.

Going from `C[As](C)SC[C@H](NC(=O)CC[C@H](N)C(=O)O)C(=O)NCC(=O)O` [Darinaparsin] + Cn1cc(/C=C2\C(=O)Nc3cccnc32)c2ccccc21 [GW441756] (first compound 0.4 µM, partner dose 0.4 µM) to `C[C@]12O[C@H](C[C@]1(O)CO)n1c3ccccc3c3c4c(c5c6ccccc6n2c5c31)CNC4=O` [Lestaurtinib] + Cn1c(=O)n(-c2ccc(C(C)(C)C#N)cc2)c2c3cc(-c4cnc5ccccc5c4)ccc3ncc21 [NVP-BEZ235] (first compound 0.004 µM, partner dose 0.004 µM), the “cleaved PARP positive nuclei fraction” value rises from 75.1% to 126%.

First: C[As](C)SC[C@H](NC(=O)CC[C@H](N)C(=O)O)C(=O)NCC(=O)O [Darinaparsin] + COCC[n+]1c2c(n(Cc3cnccn3)c1C)C(=O)c1ccccc1C2=O [YM155] (first compound 0.4 µM, partner dose 0.0004 µM)
Second: CN(C)S(=O)(=O)c1ccc2c(c1)/C(=C/c1cc3c([nH]1)CCCC3)C(=O)N2 + O=C(Oc1ccc([N+](=O)[O-])cc1)N1CCC(C(O)(c2ccc3c(c2)OCO3)c2ccc3c(c2)OCO3)CC1 [JZL184] (first compound 0.4 µM, partner dose 1 µM)
The “cleaved PARP positive nuclei fraction” value of the first is higher: 56.7% for the first, 30.9% for the second.

Going from `COc1cc2c(Oc3ccc4[nH]c(C)cc4c3F)ncnc2cc1OCCCN1CCCC1` [cediranib] + Cc1cc(SCc2sc(-c3ccc(C(F)(F)F)c(F)c3)nc2C)ccc1OCC(=O)O [GW0742] (first compound 0.4 µM, partner dose 2 µM) to `Cc1cc(Nc2cc(N3CCN(C)CC3)nc(/C=C/c3ccccc3)n2)n[nH]1` + Cc1cc(SCc2sc(-c3ccc(C(F)(F)F)c(F)c3)nc2C)ccc1OCC(=O)O [GW0742] (first compound 0.04 µM, partner dose 2 µM), the “cleaved PARP positive nuclei fraction” value falls from 124% to 32.3%.

Compared with `N.N.[Cl][Pt][Cl]` [cisplatin] + COc1cc2ncnc(Nc3ccc(Oc4ccccc4)cc3)c2cc1OC [SrcI1] (first compound 1.6 µM, partner dose 2 µM), `O=c1[nH]nc(Sc2ncc([N+](=O)[O-])s2)n1-c1ccc2c(c1)OCCO2` + O=C(Oc1ccc([N+](=O)[O-])cc1)N1CCC(C(O)(c2ccc3c(c2)OCO3)c2ccc3c(c2)OCO3)CC1 [JZL184] (first compound 0.2 µM, partner dose 1 µM) is higher in “cleaved PARP positive nuclei fraction” value: 32.7% for the first, 44.5% for the second.

Compared with `N.N.[Cl][Pt][Cl]` [cisplatin] + O=C(O)c1ccc(-c2c[nH]c3ncc(-c4ccccc4)cc23)cc1C1CCCC1 [GSK650394] (first compound 1.6 µM, partner dose 0.16 µM), `O=c1[nH]nc(Sc2ncc([N+](=O)[O-])s2)n1-c1ccc2c(c1)OCCO2` + C[As](C)SC[C@H](NC(=O)CC[C@H](N)C(=O)O)C(=O)NCC(=O)O [Darinaparsin] (first compound 0.2 µM, partner dose 0.4 µM) is lower in “cleaved PARP positive nuclei fraction” value: 493% for the first, 88.4% for the second.

`N#CC[C@H](C1CCCC1)n1cc(-c2ncnc3[nH]ccc23)cn1` [ruxolitinib] + Cn1cc(C2=C(c3cn(C4CCN(Cc5ccccn5)CC4)c4ccccc34)C(=O)NC2=O)c2ccccc21 [Enzastaurin] (first compound 1 µM, partner dose 0.8 µM) was tested, and the “cleaved PARP positive nuclei fraction” value was 43%.
